Assay results reported in US8802713B2, “3-alkoxy-1-phenylpyrazole derivatives and pesticides” (Kumiai Chemical Industry Co., Ltd., priority 2007, dated 2014).
Some results were stated once for a whole list of compounds, not compound by compound. At least one structure is not confirmed: it was looked up by name or label, or the drawing left a doubt.

Each compound was assayed on brown rice planthopper (assay: Insecticidal test on brown rice planthopper). Details: 500 ppm active ingredient, rice sprouts dipped, third-instar larvae, 25° C., 6 days.
Format: in vivo
Experimental: A wettable powder prepared in accordance with Formulation Example 2 was diluted with water to a concentration of an active ingredient of 500 ppm. Rice sprouts were dipped in this solution and put in a plastic cup having a capacity of 60 mL. Ten third-instar larvae of brown rice planthopper were released in the cup, the cup was lidded and placed in a thermostatic chamber at 25° C. for 6 days, and the number of dead larvae were counted for calculation of the mortality by Equation 2. The test was carried out by one series system.
Cc1cc(F)c(-n2ccc(OC(F)(F)C(F)(F)C(F)(F)F)n2)cc1SCC(F)(F)F [1-394] was tested, and the mortality was ≥ 90%. With Cc1cc(F)c(-n2ccc(OC(F)(F)C(F)OC(F)(F)F)n2)cc1[S+]([O-])CC(F)(F)F (stereo not drawn) [1-411] the mortality was ≥ 90%. In the case of Cc1cc(F)c(-n2ccc(OC(F)(F)C(F)OC(F)(F)C(F)(F)F)n2)cc1[S+]([O-])CC(F)(F)F (stereo not drawn) [1-413], the mortality is reported as ≥ 90%. Cc1cc(F)c(-n2ccc(OC(F)(F)C(F)OC(F)(F)C(F)(F)C(F)(F)F)n2)cc1[S+]([O-])CC(F)(F)F (stereo not drawn) [1-415] was tested, and the mortality was ≥ 90%. In the case of Cc1cc(F)c(-n2nc(OC(F)(F)C(F)(F)C(F)(F)C(F)(F)C(F)(F)C(F)(F)F)cc2N)cc1[S+]([O-])CC(F)(F)F (stereo not drawn) [1-447], the mortality is reported as ≥ 90%. In the case of CC(=O)Nc1cc(OC(F)(F)C(F)(F)C(F)(F)C(F)(F)F)nn1-c1cc(SCC(F)(F)F)c(C)cc1F [1-486], the mortality is reported as ≥ 90%. CNc1cc(OC(F)(F)C(F)(F)C(F)(F)C(F)(F)C(F)(F)C(F)(F)F)nn1-c1cc(SCC(F)(F)F)c(C)cc1F [1-526] was tested, and the mortality was ≥ 90%. CNc1cc(OCC(F)(F)OC(F)(F)C(F)(F)OC(F)(F)F)nn1-c1cc(SCC(F)(F)F)c(C)cc1F [1-546] was tested, and the mortality was ≥ 90%. For C#CCNc1cc(OCC(F)(F)OC(F)(F)C(F)(F)OC(F)(F)F)nn1-c1cc(SCC(F)(F)F)c(C)cc1F [1-590], the mortality was ≥ 90%. In the case of Cc1cc(F)c(-n2nc(OC(F)(F)C(F)OC(F)(F)C(F)(F)F)cc2C#N)cc1[S+]([O-])CC(F)(F)F (stereo not drawn) [1-671], the mortality is reported as ≥ 90%. For Cc1cc(F)c(-n2nc(OC(F)(C(F)(F)F)C(F)(F)F)cc2C)cc1[S+]([O-])CC(F)(F)F (stereo not drawn) [1-697], the mortality was ≥ 90%. Cc1cc(F)c(-n2nc(OC(F)(F)C(F)(F)C(F)(F)F)cc2Cl)cc1SCC(F)(F)F [1-872] was tested, and the mortality was ≥ 90%. For Cc1cc(F)c(-n2nc(OC(F)(F)C(F)(F)C(F)(F)C(F)(F)F)cc2Cl)cc1[S+]([O-])CC(F)(F)F (stereo not drawn) [1-875], the mortality was ≥ 90%. For Cc1cc(F)c(-n2nc(OC(F)(F)C(F)OC(F)(F)F)cc2Cl)cc1SCC(F)(F)F (stereo not drawn) [1-888], the mortality was ≥ 90%. In the case of Cc1cc(F)c(-n2nc(OC(F)(F)C(F)OC(F)(F)F)cc2Cl)cc1[S+]([O-])CC(F)(F)F (stereo not drawn) [1-889], the mortality is reported as ≥ 90%. For Cc1cc(F)c(-n2nc(OC(F)(F)C(F)OC(F)(F)C(F)(F)F)cc2Cl)cc1SCC(F)(F)F (stereo not drawn) [1-890], the mortality was ≥ 90%. In the case of Cc1cc(F)c(-n2nc(OC(F)(F)C(F)OC(F)(F)C(F)(F)F)cc2Cl)cc1[S+]([O-])CC(F)(F)F (stereo not drawn) [1-891], the mortality is reported as ≥ 90%. In the case of Cc1cc(F)c(-n2nc(OC(F)(F)C(F)OC(F)(F)C(F)(F)C(F)(F)F)cc2Cl)cc1SCC(F)(F)F (stereo not drawn) [1-892], the mortality is reported as ≥ 90%. In the case of Cc1cc(F)c(-n2nc(OC(F)(F)C(F)OC(F)(F)C(F)(F)C(F)(F)F)cc2Cl)cc1[S+]([O-])CC(F)(F)F (stereo not drawn) [1-893], the mortality is reported as ≥ 90%. Cc1cc(F)c(-n2nc(OC(F)(F)C(F)OC(F)(F)C(F)(F)C(F)(F)F)c(Cl)c2Cl)cc1SCC(F)(F)F (stereo not drawn) [1-1062] was tested, and the mortality was ≥ 90%. For Cc1cc(F)c(-n2nc(OC(F)(F)C(F)OC(F)(F)C(F)(F)C(F)(F)F)c(Cl)c2Cl)cc1[S+]([O-])CC(F)(F)F (stereo not drawn) [1-1063], the mortality was ≥ 90%. For Cc1cc(F)c(-n2nc(OC(F)(F)C(F)OC(F)(F)F)c(Br)c2Br)cc1SCC(F)(F)F (stereo not drawn) [1-1104], the mortality was ≥ 90%. With Cc1cc(F)c(-n2nc(OC(F)(F)C(F)OC(F)(F)F)c(Br)c2Br)cc1[S+]([O-])CC(F)(F)F (stereo not drawn) [1-1105] the mortality was ≥ 90%. Cc1cc(F)c(-n2nc(OC(F)(F)C(F)OC(F)(F)C(F)(F)F)c(Br)c2Br)cc1SCC(F)(F)F (stereo not drawn) [1-1106] was tested, and the mortality was ≥ 90%. In the case of Cc1cc(F)c(-n2nc(OC(F)(F)C(F)OC(F)(F)C(F)(F)F)c(Br)c2Br)cc1[S+]([O-])CC(F)(F)F (stereo not drawn) [1-1107], the mortality is reported as ≥ 90%. In the case of Cc1cc(F)c(-n2nc(OC(F)(F)C(F)OC(F)(F)C(F)(F)C(F)(F)F)c(Br)c2Br)cc1SCC(F)(F)F (stereo not drawn) [1-1108], the mortality is reported as ≥ 90%. Cc1cc(F)c(-n2cc(Cl)c(OC(F)(F)C(F)(F)C(F)(F)F)n2)cc1SCC(F)(F)F [1-1134] was tested, and the mortality was ≥ 90%. For Cc1cc(F)c(-n2cc(Cl)c(OC(F)(F)C(F)(F)C(F)(F)F)n2)cc1[S+]([O-])CC(F)(F)F (stereo not drawn) [1-1135], the mortality was ≥ 90%. In the case of Cc1cc(F)c(-n2cc(Cl)c(OC(F)(F)C(F)(F)C(F)(F)C(F)(F)F)n2)cc1[S+]([O-])CC(F)(F)F (stereo not drawn) [1-1137], the mortality is reported as ≥ 90%. Cc1cc(F)c(-n2cc(Cl)c(OC(F)(F)C(F)OC(F)(F)C(F)(F)C(F)(F)F)n2)cc1SCC(F)(F)F (stereo not drawn) [1-1150] was tested, and the mortality was ≥ 90%. For Cc1cc(F)c(-n2cc(Br)c(OC(F)(F)C(F)(F)C(F)(F)F)n2)cc1SCC(F)(F)F [1-1176], the mortality was ≥ 90%. In the case of Cc1cc(F)c(-n2cc(Br)c(OC(F)(F)C(F)(F)C(F)(F)F)n2)cc1[S+]([O-])CC(F)(F)F (stereo not drawn) [1-1177], the mortality is reported as ≥ 90%. For Cc1cc(F)c(-n2cc(Br)c(OC(F)(F)C(F)(F)C(F)(F)C(F)(F)F)n2)cc1[S+]([O-])CC(F)(F)F (stereo not drawn) [1-1179], the mortality was ≥ 90%. In the case of Cc1cc(F)c(-n2cc(Br)c(OC(F)(F)C(F)OC(F)(F)F)n2)cc1SCC(F)(F)F (stereo not drawn) [1-1192], the mortality is reported as ≥ 90%. In the case of Cc1cc(F)c(-n2cc(Br)c(OC(F)(F)C(F)OC(F)(F)C(F)(F)F)n2)cc1[S+]([O-])CC(F)(F)F (stereo not drawn) [1-1195], the mortality is reported as ≥ 90%. Cc1cc(F)c(-n2cc(Br)c(OC(F)(F)C(F)OC(F)(F)C(F)(F)C(F)(F)F)n2)cc1SCC(F)(F)F (stereo not drawn) [1-1196] was tested, and the mortality was ≥ 90%. In the case of Cc1cc(F)c(-n2cc(Br)c(OC(F)(F)C(F)OC(F)(F)C(F)(F)C(F)(F)F)n2)cc1[S+]([O-])CC(F)(F)F (stereo not drawn) [1-1197], the mortality is reported as ≥ 90%. For Cc1cc(F)c(-n2nc(OCCCOC(C(F)(F)F)C(F)(F)F)cc2C)cc1[S+]([O-])CC(F)(F)F (stereo not drawn) [1-1255], the mortality was ≥ 90%. For CNc1cc(OCC(F)(F)C(F)(F)C(F)(F)C(F)(F)C(F)(F)F)nn1-c1cc(SCC(F)(F)F)c(C)cc1F [1-1256], the mortality was ≥ 90%. In the case of Cc1cc(F)c(-n2nc(OC(F)(F)C(F)OC(F)(F)C(F)(F)C(F)(F)F)c(Br)c2N)cc1SCC(F)(F)F (stereo not drawn) [1-1257], the mortality is reported as ≥ 90%. For Cc1cc(F)c(-n2nc(OC(F)(F)C(F)OC(F)(F)C(F)(F)F)c(Br)c2N)cc1[S+]([O-])CC(F)(F)F (stereo not drawn) [1-1283], the mortality was ≥ 90%. With Cc1cc(F)c(-n2ccc(OC(F)F)n2)cc1SCC(F)(F)F [1-1355] the mortality was ≥ 90%. In the case of Cc1cc(F)c(-n2ccc(OC(F)F)n2)cc1[S+]([O-])CC(F)(F)F (stereo not drawn) [1-1356], the mortality is reported as ≥ 90%. In the case of COc1ccn(-c2cc(SCC(F)(F)F)c(C)cc2F)n1 [1-1357], the mortality is reported as ≥ 90%. With COc1ccn(-c2cc([S+]([O-])CC(F)(F)F)c(C)cc2F)n1 (stereo not drawn) [1-1358] the mortality was ≥ 90%. CC(=O)Nc1cc(OC(F)F)nn1-c1cc([S+]([O-])CC(F)(F)F)c(C)cc1F (stereo not drawn) [1-1360] was tested, and the mortality was ≥ 90%. With Cc1cc(F)c(-n2ccc(OCC(F)(F)F)n2)cc1SCC(F)(F)F [1-1363] the mortality was ≥ 90%. In the case of Cc1cc(F)c(-n2ccc(OCC(F)(F)F)n2)cc1[S+]([O-])CC(F)(F)F (stereo not drawn) [1-1364], the mortality is reported as ≥ 90%. With Cc1cc(F)c(-n2nc(OCC(F)(F)C(F)(F)F)cc2CO)cc1SCC(F)(F)F [1-1373] the mortality was ≥ 90%. CC(=O)Nc1cc(OCC#N)nn1-c1cc(SCC(F)(F)F)c(C)cc1F [1-1375] was tested, and the mortality was ≥ 90%. CC(=O)Nc1cc(OCC#N)nn1-c1cc([S+]([O-])CC(F)(F)F)c(C)cc1F (stereo not drawn) [1-1376] was tested, and the mortality was ≥ 90%. In the case of CC(=O)Nc1cc(OCCF)nn1-c1cc(SCC(F)(F)F)c(C)cc1F [1-1377], the mortality is reported as ≥ 90%. CC(=O)Nc1cc(OCCF)nn1-c1cc([S+]([O-])CC(F)(F)F)c(C)cc1F (stereo not drawn) [1-1378] was tested, and the mortality was ≥ 90%. With Cc1cc(F)c(-n2cc(Cl)c(OCC(F)(F)F)n2)cc1SCC(F)(F)F [1-1379] the mortality was ≥ 90%. In the case of Cc1cc(F)c(-n2cc(Cl)c(OCC(F)(F)F)n2)cc1[S+]([O-])CC(F)(F)F (stereo not drawn) [1-1380], the mortality is reported as ≥ 90%. In the case of Cc1cc(F)c(-n2nc(OCC(F)(F)F)c(Cl)c2N)cc1SCC(F)(F)F [1-1383], the mortality is reported as ≥ 90%. Cc1cc(F)c(-n2nc(OCC(F)(F)F)c(Cl)c2N)cc1[S+]([O-])CC(F)(F)F (stereo not drawn) [1-1384] was tested, and the mortality was ≥ 90%. Cc1cc(F)c(-n2ccc(OCC(F)(F)C(F)(F)F)n2)cc1SCC(F)(F)F [1-1385] was tested, and the mortality was ≥ 90%. With Cc1cc(F)c(-n2ccc(OCC(F)(F)C(F)(F)F)n2)cc1[S+]([O-])CC(F)(F)F (stereo not drawn) [1-1386] the mortality was ≥ 90%. For Cc1cc(F)c(-n2cc(Br)c(OC(F)(F)C(F)F)n2)cc1SCC(F)(F)F [1-1406], the mortality was ≥ 90%. For Cc1cc(F)c(-n2nc(OC(F)(F)C(F)F)c(Br)c2Br)cc1SCC(F)(F)F [1-1408], the mortality was ≥ 90%. For Cc1cc(F)c(-n2nc(OC(F)F)cc2C)cc1SCC(F)(F)F [1-1411], the mortality was ≥ 90%. In the case of COc1cc(C)n(-c2cc(SCC(F)(F)F)c(C)cc2F)n1 [1-1413], the mortality is reported as ≥ 90%. For Cc1cc(F)c(-n2nc(OCC(F)(F)F)cc2C)cc1SCC(F)(F)F [1-1415], the mortality was ≥ 90%. With CC(=O)Nc1cc(OC(F)(F)C(F)Cl)nn1-c1cc(SCC(F)(F)F)c(C)cc1F (stereo not drawn) [1-1427] the mortality was ≥ 90%. In the case of CC(=O)Nc1cc(OC(F)(F)C(F)Cl)nn1-c1cc([S+]([O-])CC(F)(F)F)c(C)cc1F (stereo not drawn) [1-1428], the mortality is reported as ≥ 90%. With CCC(=O)Nc1cc(OCC(F)(F)F)nn1-c1cc(SCC(F)(F)F)c(C)cc1F [1-1429] the mortality was ≥ 90%. CCC(=O)Nc1cc(OCC(F)(F)F)nn1-c1cc([S+]([O-])CC(F)(F)F)c(C)cc1F (stereo not drawn) [1-1430] was tested, and the mortality was ≥ 90%. With COCC(=O)Nc1cc(OCC(F)(F)F)nn1-c1cc(SCC(F)(F)F)c(C)cc1F [1-1431] the mortality was ≥ 90%. Cc1cc(F)c(-n2nc(OCC(F)(F)F)cc2NC(=O)C2CC2)cc1SCC(F)(F)F [1-1433] was tested, and the mortality was ≥ 90%. For Cc1cc(F)c(-n2nc(OCC(F)(F)F)cc2NC(=O)C2CC2)cc1[S+]([O-])CC(F)(F)F (stereo not drawn) [1-1434], the mortality was ≥ 90%. With Cc1cc(F)c(-n2nc(OCC#N)cc2C)cc1SCC(F)(F)F [1-1436] the mortality was ≥ 90%.
